Assay: DMPC loading test: lens autoclaved in packaging solution, rinsed, extracted, DMPC determined by HPLC

Q: With `CCCCCCCCCCCCCC(=O)OC[C@H](COP(=O)([O-])OCC[N+](C)(C)C)OC(=O)CCCCCCCCCCCCC` [DMPC, Dimyristoylphosphatidylcholine] as the molecule, how does the “DMPC loading in the contact lens” value (DMPC concentration in the packaging solution 0.1 mg/ml) read?
A: 25 μg/lens

Q: What about the “DMPC loading in the contact lens” value (DMPC concentration in the packaging solution 0.5 mg/ml) of the same molecule?
A: 55 mg/mL

Q: What about the “DMPC loaded into contact lens” value (during autoclave in packing saline with DMPC nanoparticles (0.1-1 mg/mL)) of the same molecule?
A: 25-65 ug/lens

Reference: patent publication US12171870B2, “Contact lens packaging solutions” (ALCON INC., priority 2020, dated 2024)
